Results deposited as PubChem BioAssay AID504791 (Drosophila RNAi Screening Center, 2011)

Screen: 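Genes whose knock-down strengthens or weakens small-RNA reporter silencing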 (primary screen)
Cells: Drosophila S2-derived reporter cells
Reagents: long dsRNA against Drosophila genes, about 150-250 ng dsRNA per well (siRNA assay); about 80-120 ng (miRNA assay)
Duration: about 5 days (siRNA assay); about 4 days (miRNA assay)
Treatment: copper sulfate induction of reporters: 25 µM (siRNA assay); 200 mM stated (miRNA assay), 1-2 days before reading
Read-out: 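Dual luciferase assay: Renilla to firefly signal ratio in each well, scaled to the mean ratio of its plate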
Active means: 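a well was a first-pass pick when its plate-scaled ratio rose above 1.5 (siRNA assay) or 1.6 (miRNA assay), or dropped below 0.6; a gene counted only if two separate dsRNAs agreed on retest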
The screen tested about 23,000 reagents; shown is an unselected part of those with a known target gene and a result. In the full data, 199 (0.86%) got an active call. 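Plate-scaled ratios behind the calls are not deposited; printed light signals are raw; many rows marked increased or decreased are still called inactive.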 The numbers tell different reagents against one gene apart. The record does not give: the direction of the score.

no.	target gene	reagent	stable assay Renilla, run 1 (luminescence)	stable assay firefly, run 1 (luminescence)	outcome
1	CG5276	1	6735	3.67e5	inactive
2	CG4476	1	7542	5.61e5	inactive
3	CG14644	1	6743	3.52e5	inactive
4	CG9926	1	7630	3.87e5	inactive
5	Pgam5 (Phosphoglycerate mutase 5)	1	8610	5.17e5	inactive
6	GatB (Glutamyl-tRNA amidotransferase, subunit B)	1	6752	3.08e5	inactive
7	GNBP-like3 (GNBP-like 3)	1	7148	3.98e5	inactive
8	Srp54 (Splicing regulatory protein 54)	1	22830	4.80e5	inactive
9	CG16826	1	7395	4.85e5	inactive
10	CR30029 (pseudo)	1	6214	4.59e5	inactive
11	igl (igloo)	1	15982	5.66e5	inactive
12	CG15651	1	6787	2.76e5	inactive
13	CG9451	1	6034	3.34e5	inactive
14	Mul1 (Mitochondrial E3 ubiquitin protein ligase 1)	1	5799	3.39e5	inactive
15	CG17816	1	6055	4.65e5	inactive
16	nompA (no mechanoreceptor potential A)	1	6108	3.50e5	inactive
17	CG15741	1	5363	3.25e5	inactive
18	Cog3 (Component of oligomeric golgi complex 3)	1	46601	1.41e5	inactive

A few values from above:
Under “stable assay firefly, run 1 (luminescence)”, CG15741 is entered as 3.25e5
igl (igloo), stable assay firefly, run 1 (luminescence): 5.66e5
CG15651, stable assay Renilla, run 1 (luminescence) → 6787
CR30029 (pseudo), stable assay firefly, run 1 (luminescence) → 4.59e5

The results go on.
no.	target gene	reagent	stable assay Renilla, run 1 (luminescence)	stable assay firefly, run 1 (luminescence)	outcome
19	CG13067	1	6662	4.22e5	inactive
20	CG7227	1	1.76e5	1.15e5	inactive
21	hry (hairy)	1	5535	2.27e5	inactive
22	hry (hairy)	2	3440	2.70e5	inactive
23	CG4866	1	6556	3.87e5	inactive
24	CG7304	1	7486	2.89e5	inactive
25	CG4287	1	11292	4.92e5	inactive
26	Idi (Isopentenyl-diphosphate delta isomerase)	1	8964	3.48e5	inactive
27	CG4218	1	6422	4.41e5	inactive
28	mgr (merry-go-round)	1	6808	3.86e5	inactive
29	amd (alpha methyl dopa-resistant)	1	4954	3.83e5	inactive
30	amd (alpha methyl dopa-resistant)	2	7096	3.90e5	inactive
31	CG34278	1	4591	4.32e5	inactive
32	Msr-110	1	8613	3.62e5	inactive
33	CG10000	1	6291	3.68e5	inactive
34	CG32050 (retired record)	1	4735	2.75e5	inactive
